Legend:
Format in all cases: cell-based, human
[1] = test system: CD34+-derived cells (HSC, MPP, CPP); experiment: AHR antagonist dose-response on HSC/P subpopulation number
Method: Freshly purified bone marrow-derived human CD34^+ cells were obtained from either the Penn Xenograft Core Facility or AllCells (Emeryville, Calif.). Cells from at least 20 different donors were used in this study. Purity of the samples (>98%) was confirmed by flow cytometry with monoclonal antibody against human CD34. All experiments were performed in HSC expansion media (StemLine, Sigma) supplemented with 1× antibiotics, 20% BIT 9500 Serum Substitute (StemCell Technologies), 2 mM […] (Gibco) and the following human recombinant cytokines: SCF (100 ng/ml) and Tpo (100 ng/ml). In some occasions, the media was also supplemented by G-CSF (100 ng/ml), epidermal growth factor (EGF, 100 ng/ml), transforming growth factor beta 1 (TGF-beta1, 100 ng/ml), erythropoietin (EPO, 1 U/ml) and interleukin-3 (IL-3, 10 ng/ml). All cytokines were purchased from R&D Systems. After cells were cultured for 4 days, they were treated with different doses of cellular contractility inhibitors, including (±)-Blebbistatin (Bleb) (EMD Biosciences) and/or CH-223191 (Sigma) for indicated durations of up to 3 days. Cells were cultured at 37° C. in 5% CO2.
Surface marker analysis for HSC/Ps was done on either a LSR II flow cytometer or FACSCalibur (Becton Dickinson). […] Cells isolated from the bone marrow stained for 1 hr with APC anti-mouse CD47 (miap301, AbD Serotec), FITC anti-human CD47 (BD Biosciences), and PE anti-human CD11b, PE anti-human CD19 (both from BD Biosciences), or PE anti-human Glycophorin A (Invitrogen). Plts and RBCs were analyzed by staining with PE anti-mouse CD41 (eBioscience) and FITC anti-human CD41 (eBioscience) for 20 min, followed by analysis on FACSCalibur on log forward and side scatter scales.

[2] = test system: BM CD34+-derived cells (CD41+ MK); experiment: Ploidy analysis of CD34+-derived cells treated with contractility inhibitors (flow cytometry)
Method: Fresh purified bone marrow (BM)-derived humanCD34^+ cells were obtained from either the Penn Xenograft Core Facility or AllCells. Cells from at least 10 different donors were used in this study. Purity of the samples (>98%) was confirmed by flow cytometry with monoclonal antibody against human CD34 conjugated to phycoerythrin (PE). All experiments were performed in hematopoietic stem cell (HSC) expansion media (StemLine-II; Sigma) supplemented with 1× antibiotics, and the following human recombinant cytokines SCF (100 ng/mL) and Tpo (100 ng/mL). In some occasions, the media was also supplemented by G-CSF (100 ng/mL). All cytokines were purchased from R&D Systems. After cells were cultured for 4 days, they were treated with different doses of cellular contractility inhibitors, including (±)-blebbistatin (EMDBiosciences), reversine, ML-7, and Y-27632 (Sigma) for indicated durations of up to 3 days. Unfortunately, longer exposure to drug proves toxic even to polyploidy cells under the present culture conditions. Cells were then resuspended in PBS/2% FBS medium and subjected to ploidy analysis: cells were stained with CD41-FITC (BD Biosciences) at room temperature for 30 min, followed by Hoechst 33342 at 37° C. for 30 min. Then cells were stained with Annexin-V-PE (BD Biosciences) in the Annexin-V staining medium, followed by addition of 7-AAD. Stained cells were subjected to flow cytometric analysis (LSR-II; BD Biosciences): only viable cells (7-AAD^− and Hoechst 33342^+) were analyzed for ploidy. Cells with the DNA content of 8 N or higher were considered polyploid. To quantify absolute number of polyploid cells, viable cell number was counted before flow cytometry by Trypan blue exclusion, and this number was multiplied by percentages of each DNA compartment and subpopulations. Each multiplied number was then normalized by initial cell input number before drug treatment in culture.

[3] = test system: CD34+-derived cells (CFU-GM, BFU-E); experiment: Colony forming assay
Method: 1000-3000 CD34^+-derived cells were seeded into methylcellulose containing media (MethoCult H4434, StemCell Technologies) supplemented with SCF, GM-CSF, IL-3, Epo. They were cultured for 14 days and colonies were scored at 10× magnification based on the published morphological criteria by StemCell Technoloigies. Colony forming content was normalized per 10,000 cells seeded.

Cc1ccccc1N=Nc1ccc(NC(=O)c2ccnn2C)c(C)c1 [CH-223191]
Hill coefficient, CPP number ([1]; untreated and Bleb, for both): 2.0
Hill coefficient, MPP number ([1]; untreated and Bleb, for both): 1.0
Hill coefficient, HSC number ([1]; with 20 μM Bleb): 1.0
Hill coefficient, HSC number ([1]; without Bleb): 1.5

c1nc2nc(Nc3ccc(N4CCOCC4)cc3)nc(NC3CCCCC3)c2[nH]1 [reversine]
Hill slope, MK polyploid cell number curve [2]: 10.8
Hill slope, MK cell number in 2 N [2]: −2.0
Hill slope, MK cell number in 4 N [2]: −1.6

O=S(=O)(c1cccc2c(I)cccc12)N1CCCNCC1 [ML7, ML-7]
Hill slope, MK polyploid cell number curve [2]: −4.74
Hill slope, MK cell number in 2 N [2]: −0.93
Hill slope, MK cell number in 4 N [2]: −0.8

Cc1ccc2c(c1)C(=O)C1(O)CCN(c3ccccc3)C1=N2 (racemic) [blebbistatin, (±)-blebbistatin]
Hill coefficient, BFU-E [3]: −20
Hill coefficient, CFU-GM [3]: −6
Hillslope, BFU-E relative to CFU-GM ([3]; absence of Epo): 5.0
Hill coefficient, ratio polyploid MKs to 2n+4n MKs [2]: 7.0
Hill slope, MK polyploid cell number curve [2]: 7.0
Hill exponent n ([2]; MK responses in drug concentration): ~7
Hill slope, CD41+ MK and non-MK polyploid cell number ([2]; treatment for 3 d): 7.0

C[C@@H](N)[C@H]1CC[C@H](C(=O)Nc2ccncc2)CC1 [Y-27632]
Hill slope, MK polyploid cell number curve [2]: 1.0

Reference: US9920295B2, “Bioreactor for isolation of rare cells and methods of use” (The Trustees of the University of Pennsylvania, priority 2012, dated 2018)
